For two molecules, binding results are on record in publication PMC5796987.

One test concerns the target T1, HA-PLCγ1 Y783A (UniProt P19174).
T1 sequence: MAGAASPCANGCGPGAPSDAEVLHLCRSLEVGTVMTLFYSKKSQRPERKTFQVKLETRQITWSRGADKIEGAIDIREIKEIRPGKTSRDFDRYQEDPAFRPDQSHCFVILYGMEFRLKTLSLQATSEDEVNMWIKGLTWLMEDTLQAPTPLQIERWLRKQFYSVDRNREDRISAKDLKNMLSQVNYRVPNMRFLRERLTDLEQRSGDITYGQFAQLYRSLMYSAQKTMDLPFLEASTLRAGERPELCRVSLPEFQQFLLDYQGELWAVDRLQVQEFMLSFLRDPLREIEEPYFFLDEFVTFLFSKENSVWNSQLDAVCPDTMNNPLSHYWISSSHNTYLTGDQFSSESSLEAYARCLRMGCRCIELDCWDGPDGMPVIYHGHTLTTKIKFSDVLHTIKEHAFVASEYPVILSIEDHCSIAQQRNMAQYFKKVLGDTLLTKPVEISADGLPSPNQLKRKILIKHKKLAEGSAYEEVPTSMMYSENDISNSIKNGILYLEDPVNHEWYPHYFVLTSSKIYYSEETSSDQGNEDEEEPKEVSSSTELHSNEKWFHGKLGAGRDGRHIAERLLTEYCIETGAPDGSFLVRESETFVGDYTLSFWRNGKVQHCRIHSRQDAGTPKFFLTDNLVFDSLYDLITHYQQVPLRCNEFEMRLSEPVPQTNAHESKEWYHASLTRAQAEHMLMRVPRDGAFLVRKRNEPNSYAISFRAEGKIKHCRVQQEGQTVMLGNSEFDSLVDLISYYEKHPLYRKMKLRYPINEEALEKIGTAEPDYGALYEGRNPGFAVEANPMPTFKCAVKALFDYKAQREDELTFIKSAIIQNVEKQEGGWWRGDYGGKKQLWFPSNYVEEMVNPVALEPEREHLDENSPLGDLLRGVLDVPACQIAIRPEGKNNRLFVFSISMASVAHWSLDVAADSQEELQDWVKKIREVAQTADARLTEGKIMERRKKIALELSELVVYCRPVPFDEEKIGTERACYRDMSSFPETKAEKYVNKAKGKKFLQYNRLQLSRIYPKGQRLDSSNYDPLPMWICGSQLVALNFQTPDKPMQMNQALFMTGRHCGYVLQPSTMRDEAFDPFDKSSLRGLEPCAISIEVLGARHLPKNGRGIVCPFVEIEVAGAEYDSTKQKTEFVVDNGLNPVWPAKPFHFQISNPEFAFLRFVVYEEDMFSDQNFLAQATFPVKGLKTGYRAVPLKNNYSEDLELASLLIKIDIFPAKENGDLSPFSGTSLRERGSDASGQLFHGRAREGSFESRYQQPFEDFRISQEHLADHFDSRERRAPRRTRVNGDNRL
As to the kind of experiment: co-IP; lysates of human OA chondrocytes transfected with HA-PLCγ1 or HA-PLCγ1 Y783A for 48 h; 400 μg protein with Protein A&G Sepharose and anti-PLCγ antibody, 3 h at 4°C; blotted with PLCγ1 and Akt antibodies.

In a further test the target is myc-Akt S473A. As to the kind of experiment: co-IP; lysates of human OA chondrocytes transfected with myc-Akt or myc-Akt S473A for 48 h; 400 μg protein with Protein A&G Sepharose and anti-Akt antibody, 3 h at 4°C; blotted with PLCγ1 and Akt antibodies.
Another test deals with myc-Akt. The description is as above.

Residue numbers refer to the chain shown, from its start. These are yes or no findings as the source states them, for the method shown. In cells and extracts the contact can be indirect. Binding can be weak; no strength is given. For part of these data: Sequences can lack the tags named with a protein.

As for “Akt (protein kinase B), endogenous in human OA chondrocytes”, the binding result with HA-PLCγ1 Y783A is reported as “binds”.

B1: PLCγ1 (phosphoinositide-specific phospholipase γ1), endogenous in human OA chondrocytes (protein, UniProt P19174 1-1290)
chain: T1 sequence with A783Y
B1: the binding result with myc-Akt S473A and in the test with myc-Akt was “binds” throughout.
